Test results taken from patent US20250296993A1.
These are yes or no findings as the source states them, for the method shown. Some results given as binding are weak or reduced against the parent protein; the word gives no strength.

Tests used:
[1] = biological target: T1, Natural Fel d 1 (NA-FD1-1, Indoor Biotechnologies), natural Fel d 1 antigen purified from cat hair (cat (Felis domesticus / Felis catus)) (UniProt P30438+P30440); assay: chequerboard sandwich ELISA, Fel d 1 200 ng/ml; MAb 2 as capture (also as HRP conjugate 2)
T1 sequence (looked up) 1: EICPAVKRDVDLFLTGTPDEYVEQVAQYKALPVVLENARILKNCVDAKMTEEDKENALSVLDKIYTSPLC
T1 sequence (looked up) 2: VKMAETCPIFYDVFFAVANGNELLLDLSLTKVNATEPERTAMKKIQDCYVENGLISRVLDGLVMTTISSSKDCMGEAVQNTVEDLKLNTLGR

[2] = biological target: T1, Natural Fel d 1 (NA-FD1-1, Indoor Biotechnologies), natural Fel d 1 antigen purified from cat hair (cat (Felis domesticus / Felis catus)); assay: sandwich ELISA standard curves, Fel d 1 200 to 0.098 ng/ml
[3] = biological target: T1, Natural Fel d 1 (NA-FD1-1, Indoor Biotechnologies), natural Fel d 1 antigen purified from cat hair (cat (Felis domesticus / Felis catus)); assay: ELISA
[4] = biological target: T1, Natural Fel d 1 (NA-FD1-1, Indoor Biotechnologies), natural Fel d 1 antigen purified from cat hair (cat (Felis domesticus / Felis catus)); assay: chequerboard sandwich ELISA, Fel d 1 200 ng/ml; MAb 9 as capture
[5] = biological target: T1, Natural Fel d 1 (NA-FD1-1, Indoor Biotechnologies), natural Fel d 1 antigen purified from cat hair (cat (Felis domesticus / Felis catus)); assay: chequerboard sandwich ELISA, Fel d 1 200 ng/ml; MAb 20 as capture (also as HRP conjugate 20)
[6] = biological target: T1, Natural Fel d 1 (NA-FD1-1, Indoor Biotechnologies), natural Fel d 1 antigen purified from cat hair (cat (Felis domesticus / Felis catus)); assay: chequerboard sandwich ELISA, Fel d 1 200 ng/ml; MAb 18 as HRP conjugate (detect)

B1: Fel d 1 MAb2 (cAb10204, clone 2291.014.055.067) (antibody, mouse IgG1, kappa, V domains shown)
VH: EVKLMESGGGLVKPGGSLKLSCAASGFTFSSYDMSWVRQTPEKRLEWVATISSGGTYTYYPDSLKGRFTISRDNARNTLYLQMSSLRSEDTALFYCARLLRTYAMDYWGQGTSVTVSS
VL: DIQMNQSPSSLSASLGDTITITCHASQNIIVWLNWYQQKPGNIPKLLIYKASNLHTGVPSRFSGSGSGTGFTLTISSLQPEDIATYYCQQGQSYHTWTFGGGTKLEIKR
- binding [1]: binds
- binding [2]: binds
- binding [3]: binds

B2: Fel d 1 MAb9 (cAb10205, clone 2293.254.030) (antibody, mouse IgG1, kappa, V domains shown)
VH: QVQLQQPGAELVKPGASVKLSCKASGYTFTSYWMYWVKQRPGQGLEWIGEINPSNGRTNYNEKFKTKATLTVDKSSSTAYMQLSSLTSEDSAVYYCARRATMIGGFAYWGQGTLVTVSA
VL: DIVMTQSPSSLTVTTGEKVTMNCKSSQSLLNSANQKNYLTWHQQKPGQPPKLLIYWASTRESGVPDRFTGSGSGTDFTLTISSVQAEDLAVYYCQNDYSFPFTFGSGTKLEIKR
- binding [4]: binds
- binding [3]: binds

B3: Fel d 1 MAb20 (cAb10207, clone 2297.179.089) (antibody, mouse IgG1, kappa, V domains shown)
VH: QVQLQQPGTELVRPGASVKLSCKASGYTFTSYWINWVKQRPGQGLEWIGNIYPSDSYTNYNQKFKDKATLTVDKSSSTAYMQLSSPTSDDSAVYYCTRRGNYGNLYYFDYWGQGTTLTVSS
VL: NIVMTQSPKSMSMSVGERVTLSCKASENVGSYVFWYQQKPDQSPKLLIYGASNRYTGVPDRFTGSRSATDFTLTISNVQAEDLADYHCGQSYSYPLTFGAGTKLELKR
- binding [5]: binds
- binding [2]: binds

B4: Fel d 1 MAb18 (cAb10206, clone 2297.167.064) (antibody, mouse IgG1, kappa, V domains shown)
VH: QGQMQQSGAELVKPGASVKLSCKTSGFTFSSSYISWLKQKPGQSLEWIAWIYAGTGGTTYNQRFTGKAQLTVDSSSSTAYMHFSSLTTDDSAIYYCARHYGNPPAWFAYWGQGTLVTVSA
VL: DIQMTQSPASLSASVGETVTITCRASGNIHNYLAWFQQRQGKSPQLLVYNAETLADGVPSRFSGSGSGTQYSLKISSLQPEDFGSYFCQHFWSRPPTFGGGTKLEIKR
- binding [6]: binds
- binding [2]: binds
